Results as given in patent US20240192215A1.
No constants are given. Whether binding was seen depends on the method and setting. Some binding calls cover weakened binding; strength is not graded here.

Key:
Peptide_019 (human) = target: T1, Peptide_019 (human); test: peptide microarray
T1 sequence (peptide): VKQIESKTAFQEALD

Peptide_054 (human) = target: T2, Peptide_054 (human); test: peptide microarray
T2 sequence (peptide): MIKPFFHSLSEKYSN

B1: monoclonal antibody B264 (antibody, mouse IgG1, kappa, V domains shown)
VH: QVQLQQSGAELARPGASVKMSCKASGYTFTSYTMHWVKQRPGQGLEWIGYINPTSDYTNYNQKFKDKATLTADKSSSTAYMQLSSLTSEDSAVYFCASEGGFLYYFDYWGQGTTLTVSS
VL: DVLMTQTPLSLPVSLGDQASISCRSSQSIVHSNGNTYLEWYLQKPGQSPKLLIYKVSNRFSGVPDRFSGSGSGTDFTLKISRVEAEDLGVYYCFQGSHVPYTFGGGTKLEIKR
B1 was tested, and the binding (Peptide_019 (human)) was “binds” and the binding (Peptide_054 (human)) was “binds”.
